Values from PubChem BioAssay AID1259405 (NCATS, 2018)

Test: 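Mouse-designed siRNAs used to find CHO productivity engineering targets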 (primary screen)
Cells: Chinese hamster CHO-K1 ovary cells with stable secreted eGFP expression
Reagent: single siRNA against mouse genes, 0.8 pmol siRNA per well (2 µl of 400 nM stock)
Time to read-out: 3 days
Measurement: 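Per-well intracellular GFP measured by laser scanning cytometry, plus viability from ATP luminescence, each relative to plate median of non-targeting control wells, in %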
Direction: GFP, % of control: higher = more GFP per well, higher productivity; viability (ATP), % of control: higher = more viable cells (more ATP)
Hit rule: 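a knock-down is called active if GFP reaches 120% or more of non-targeting control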
The whole screen tested about 50,000 reagents; shown is an unselected part. About 4,000 of all reagents (8%) were called active. 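Mouse siRNA library applied to hamster cells; one well for each siRNA.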 Unmarked entries are inactive. Reagents against one gene are numbered here.

Gene | reagent no. | GFP, % of control | viability (ATP), % of control
Zfp366 (zinc finger protein 366) | 1 | 114 | 131
Zfp366 (zinc finger protein 366) | 2 | 80.2 | 101
Zfp366 (zinc finger protein 366) | 3 | 90.5 | 123
Hba-x (hemoglobin X, alpha-like embryonic chain in Hba complex) | 1 | 112 | 49.7
Hba-x (hemoglobin X, alpha-like embryonic chain in Hba complex) | 2 | 173 (active) | 69
Hba-x (hemoglobin X, alpha-like embryonic chain in Hba complex) | 3 | 96.1 | 79.1
Olfr900 (olfactory receptor 900) | 1 | 69 | 58.8
Olfr900 (olfactory receptor 900) | 2 | 66.4 | 53.6
Olfr900 (olfactory receptor 900) | 3 | 95.9 | 107
Rad1 (RAD1 checkpoint DNA exonuclease) | 1 | 102 | 79.5
Rad1 (RAD1 checkpoint DNA exonuclease) | 2 | 73.2 | 92.1
Rad1 (RAD1 checkpoint DNA exonuclease) | 3 | 76.7 | 84.1
Gigyf1 (GRB10 interacting GYF protein 1) | 1 | 97.5 | 78.1
Gigyf1 (GRB10 interacting GYF protein 1) | 2 | 80.7 | 69.9
Gigyf1 (GRB10 interacting GYF protein 1) | 3 | 86.3 | 71.8
Glg1 (golgi apparatus protein 1) | 1 | 55.4 | 55
Glg1 (golgi apparatus protein 1) | 2 | 54.4 | 60.6
Glg1 (golgi apparatus protein 1) | 3 | 59.7 | 52.8
Ofcc1 (orofacial cleft 1 candidate 1) | 1 | 74.2 | 48.2
Ofcc1 (orofacial cleft 1 candidate 1) | 2 | 82.2 | 90.8
Ofcc1 (orofacial cleft 1 candidate 1) | 3 | 98.9 | 69.6
Rhbdf2 (rhomboid 5 homolog 2) | 1 | 81.2 | 28.9
Rhbdf2 (rhomboid 5 homolog 2) | 2 | 45.1 | 31.9
Rhbdf2 (rhomboid 5 homolog 2) | 3 | 74.7 | 64.9
Inha (inhibin alpha) | 1 | 52.7 | 56.6
Inha (inhibin alpha) | 2 | 85.9 | 105
Inha (inhibin alpha) | 3 | 101 | 136
Igf2bp1 (insulin-like growth factor 2 mRNA binding protein 1) | 1 | 70.5 | 79.8
Igf2bp1 (insulin-like growth factor 2 mRNA binding protein 1) | 2 | 81 | 96.7
Igf2bp1 (insulin-like growth factor 2 mRNA binding protein 1) | 3 | 94.6 | 114
4930524B15Rik (RIKEN cDNA 4930524B15 gene) | 1 | 57.8 | 57.8
4930524B15Rik (RIKEN cDNA 4930524B15 gene) | 2 | 84.3 | 55.8
4930524B15Rik (RIKEN cDNA 4930524B15 gene) | 3 | 114 | 78
Tle2 (transducin-like enhancer of split 2) | 1 | 137 (active) | 117
Tle2 (transducin-like enhancer of split 2) | 2 | 89 | 55.6
Tle2 (transducin-like enhancer of split 2) | 3 | 62.8 | 64.4
Plek2 (pleckstrin 2) | 1 | 37.3 | 66.6
Plek2 (pleckstrin 2) | 2 | 35 | 45.4
Plek2 (pleckstrin 2) | 3 | 63.7 | 59.5
Gatm | 1 | 57.9 | 88.1
Gatm | 2 | 81.1 | 124
Gatm | 3 | 58.2 | 99.8

A portion of the results above:
Gene | reagent no. | GFP, % of control | viability (ATP), % of control
Tle2 (transducin-like enhancer of split 2) | 3 | 62.8 | 64.4
Plek2 (pleckstrin 2) | 1 | 37.3 | 66.6
Plek2 (pleckstrin 2) | 2 | 35 | 45.4
Plek2 (pleckstrin 2) | 3 | 63.7 | 59.5
Gatm | 1 | 57.9 | 88.1
Gatm | 2 | 81.1 | 124
Gatm | 3 | 58.2 | 99.8

Next entries follow.
Gene | reagent no. | GFP, % of control | viability (ATP), % of control
Celf4 (CUGBP, Elav-like family member 4) | 1 | 53.2 | 58.4
Celf4 (CUGBP, Elav-like family member 4) | 2 | 59.2 | 66.4
Celf4 (CUGBP, Elav-like family member 4) | 3 | 32.2 | 52.2
Cab39 (calcium binding protein 39) | 1 | 94.8 | 104
Cab39 (calcium binding protein 39) | 2 | 81.6 | 70.8
Nktr (natural killer tumor recognition sequence) | 1 | 112 | 125
Nktr (natural killer tumor recognition sequence) | 2 | 54.9 | 64.2
Nktr (natural killer tumor recognition sequence) | 3 | 49.9 | 41
Cog2 (component of oligomeric golgi complex 2) | 1 | 99.7 | 69.9
Cog2 (component of oligomeric golgi complex 2) | 2 | 66.3 | 50.9
Btnl1 (butyrophilin-like 1) | 1 | 53.8 | 70.4
Btnl1 (butyrophilin-like 1) | 2 | 74.1 | 70.3
Btnl1 (butyrophilin-like 1) | 3 | 74.7 | 70.5
Lrrc39 (leucine rich repeat containing 39) | 1 | 46 | 46.9
Lrrc39 (leucine rich repeat containing 39) | 2 | 61.2 | 78.1
Lrrc39 (leucine rich repeat containing 39) | 3 | 69.4 | 96.9
Reep6 (receptor accessory protein 6) | 1 | 95.9 | 71.5
Reep6 (receptor accessory protein 6) | 2 | 61.1 | 88.1
Reep6 (receptor accessory protein 6) | 3 | 89 | 85.1
Thyn1 (thymocyte nuclear protein 1) | 1 | 37.3 | 44.4
Thyn1 (thymocyte nuclear protein 1) | 2 | 54.3 | 101
Thyn1 (thymocyte nuclear protein 1) | 3 | 92.4 | 96.7
Far1 (fatty acyl CoA reductase 1) | 1 | 48.8 | 74
Far1 (fatty acyl CoA reductase 1) | 2 | 62.5 | 58.7
Far1 (fatty acyl CoA reductase 1) | 3 | 52.5 | 67.1
Prokr2 (prokineticin receptor 2) | 1 | 66.9 | 69.6
Prokr2 (prokineticin receptor 2) | 2 | 58 | 59.1
Prokr2 (prokineticin receptor 2) | 3 | 70.4 | 70.7
Ip6k1 (inositol hexaphosphate kinase 1) | 1 | 134 (active) | 65
Ip6k1 (inositol hexaphosphate kinase 1) | 2 | 62.1 | 65.4
Ip6k1 (inositol hexaphosphate kinase 1) | 3 | 85.2 | 104
Tsku (tsukushi, small leucine rich proteoglycan) | 1 | 141 (active) | 61.6
Tsku (tsukushi, small leucine rich proteoglycan) | 2 | 75.1 | 80.3
Tsku (tsukushi, small leucine rich proteoglycan) | 3 | 85.4 | 109
Fam13a (family with sequence similarity 13, member A) | 1 | 88.4 | 90.4
Fam13a (family with sequence similarity 13, member A) | 2 | 123 (active) | 94.6
Fam13a (family with sequence similarity 13, member A) | 3 | 167 (active) | 79.9
Phtf1 (putative homeodomain transcription factor 1) | 1 | 81.8 | 101
Phtf1 (putative homeodomain transcription factor 1) | 2 | 96.4 | 67.1
Phtf1 (putative homeodomain transcription factor 1) | 3 | 75 | 83.9
Tmem132c (transmembrane protein 132C) | 1 | 52.3 | 25.5
Tmem132c (transmembrane protein 132C) | 2 | 101 | 68.1
Tmem132c (transmembrane protein 132C) | 3 | 82.6 | 104
